{"sequences": {"note": "Chains of the proteins cited; added tags and fusions are not shown. Residues count along the entry.", "UniProt Q9Y618, residues 1-900": "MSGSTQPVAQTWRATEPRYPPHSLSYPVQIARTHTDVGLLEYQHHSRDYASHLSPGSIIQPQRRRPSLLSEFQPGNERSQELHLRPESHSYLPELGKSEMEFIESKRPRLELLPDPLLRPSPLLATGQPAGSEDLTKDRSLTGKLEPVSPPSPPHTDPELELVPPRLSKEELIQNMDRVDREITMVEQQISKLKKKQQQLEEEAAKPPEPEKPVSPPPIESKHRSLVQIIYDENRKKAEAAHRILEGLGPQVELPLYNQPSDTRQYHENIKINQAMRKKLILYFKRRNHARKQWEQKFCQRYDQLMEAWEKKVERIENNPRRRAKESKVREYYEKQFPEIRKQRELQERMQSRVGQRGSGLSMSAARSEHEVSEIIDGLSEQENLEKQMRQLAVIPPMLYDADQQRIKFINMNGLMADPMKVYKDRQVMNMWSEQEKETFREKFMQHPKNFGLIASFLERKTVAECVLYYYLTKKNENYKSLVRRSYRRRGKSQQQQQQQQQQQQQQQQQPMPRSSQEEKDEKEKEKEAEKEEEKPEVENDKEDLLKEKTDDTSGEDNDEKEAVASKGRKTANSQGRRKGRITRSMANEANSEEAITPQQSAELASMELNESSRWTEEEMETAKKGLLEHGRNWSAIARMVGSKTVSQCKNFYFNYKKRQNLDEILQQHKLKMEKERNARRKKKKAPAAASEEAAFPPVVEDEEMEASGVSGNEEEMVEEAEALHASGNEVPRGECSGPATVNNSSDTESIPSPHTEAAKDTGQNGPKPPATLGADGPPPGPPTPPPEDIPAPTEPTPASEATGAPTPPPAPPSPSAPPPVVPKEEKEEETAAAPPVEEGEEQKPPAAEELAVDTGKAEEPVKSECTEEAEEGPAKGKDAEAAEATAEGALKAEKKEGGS"}, "source": "patent US20050119456A1", "key": {"[1]": {"target": "GST-SMRT (Hu SMRT(1-900) fused to GST, from pGEX-6p-1) (human) (UniProt Q9Y618)", "assay": "GST pull-down (told in the discussion of the co-transfection experiment)"}, "[2]": {"target": "GST-SMRT (Hu SMRT(1-900) fused to GST, from pGEX-6p-1) (human) (UniProt Q9Y618)", "assay": "GST pull-down of 35S-labeled in vitro translated C21 fragment by GST-SMRT(1-900)"}}, "note": "No constants are given. Whether binding was seen depends on the method and setting. Binding seen in cells or lysates may run through a third protein. Some entries that bind do so weakly or less than the wild type."}
{"binder": "21[δC] (protein, not shown: small tags and cut ends, 35S-methionine label) MSISSDEVNFLVYRYLQESGFSHSAFTFGIKSHISQSNINGALVPPAALISIIQKGLQYVEAEVSINEDGTLFDGRPIESLSLIDAVMPDVVQTRQQAYRDKLAQQQAAAAAAAAAAASQQGSAKNGENTANGEENGAHTIANNHTDMMEVDGDVEIPPNKAVVLRGHESEVFICAWNPVSDLLASGSGDSTARIWNLSENSTSGSTQLVLRHCIREGGQDVPSNKDVTS", "values": [{"measurement": "binding", "setting": "[1]", "value": "binds"}, {"measurement": "binding", "setting": "[2]", "value": "binds"}]}
